Reference: PubChem BioAssay AID1259425 (University of Nebraska Medical Center, 2018)

- Screen: 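Find knockdowns that reproduce the gene expression pattern seen when KSR1 is lost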 (primary screen)
- Cell system: HCT116 human colon cancer cells
- Reagent: siRNA pool against human genes, 50 nM siRNA
- Detection: 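After 50 nM siRNA pool, branched-DNA assay measures six marker transcripts per well, minus blank, normalised to the geometric mean of two housekeeping transcripts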
- Direction: BNIP3L mRNA: higher = more BNIP3L transcript after knockdown; NDRG1 mRNA: higher = more NDRG1 transcript after knockdown
In all, the deposit lists about 14,000 reagents; below is a random part of them. A reagent listed more than once was tested more than once; the source does not tell the runs apart. Not all columns of the deposit are shown. Not given: the time to read-out.

Depletion of HPS5 resulted in: BNIP3L mRNA, set 1 = 0.0584; NDRG1 mRNA, set 1 = 0.135.
With knock-down of SLC27A3 the results were BNIP3L mRNA, set 1 = 0.146; NDRG1 mRNA, set 1 = 0.154.
With knock-down of RSL24D1 the results were BNIP3L mRNA, set 1 = 0.157; NDRG1 mRNA, set 1 = 0.225.
Against KIRREL2, the values are BNIP3L mRNA, set 1 = 0.21; NDRG1 mRNA, set 1 = 0.266.
For CYP4F8 the deposit lists BNIP3L mRNA, set 1 = 0.13; NDRG1 mRNA, set 1 = 0.142.
DPEP1 scored BNIP3L mRNA, set 1 = 0.0678; NDRG1 mRNA, set 1 = 0.184.
Depletion of IL27RA came out at: BNIP3L mRNA, set 1 = 0.138; NDRG1 mRNA, set 1 = 0.143.
Silencing of MRM3 came out at: BNIP3L mRNA, set 1 = 0.0965; NDRG1 mRNA, set 1 = 0.187.
TWF1 gave BNIP3L mRNA, set 1 = 0.108; NDRG1 mRNA, set 1 = 0.208.
With knock-down of NUCKS1, the screen gave BNIP3L mRNA, set 1 = 0.138; NDRG1 mRNA, set 1 = 0.141.
SMAD4 gave BNIP3L mRNA, set 1 = 0.108; NDRG1 mRNA, set 1 = 0.252.
With knock-down of FBXL8 the results were BNIP3L mRNA, set 1 = 0.04; NDRG1 mRNA, set 1 = 0.145.
Depletion of TCEAL7 came out at: BNIP3L mRNA, set 1 = 0.0786; NDRG1 mRNA, set 1 = 0.149.
Silencing of GNG7 came out at: BNIP3L mRNA, set 1 = 0.149; NDRG1 mRNA, set 1 = 0.557.
After knock-down of UTP4, the record shows BNIP3L mRNA, set 1 = 0.0699; NDRG1 mRNA, set 1 = 0.131.
FBXW2 scored BNIP3L mRNA, set 1 = 0.0805; NDRG1 mRNA, set 1 = 0.11.
FAR2 gave BNIP3L mRNA, set 1 = 0.111; NDRG1 mRNA, set 1 = 0.323.
PIR scored BNIP3L mRNA, set 1 = 0.0787; NDRG1 mRNA, set 1 = 0.132.
For EIF3C, the values are BNIP3L mRNA, set 1 = 0.0559; NDRG1 mRNA, set 1 = 0.0774.
ADAM17 showed BNIP3L mRNA, set 1 = 0.0799; NDRG1 mRNA, set 1 = 0.175.
Knock-down of VWF resulted in: BNIP3L mRNA, set 1 = 0.13; NDRG1 mRNA, set 1 = 0.212.
Depletion of HMGCR gave: BNIP3L mRNA, set 1 = 0.0642; NDRG1 mRNA, set 1 = 0.144.
Depletion of ADAP2 came out at: BNIP3L mRNA, set 1 = 0.0519; NDRG1 mRNA, set 1 = 0.0844.
Depletion of MEGF9 gave: BNIP3L mRNA, set 1 = 0.134; NDRG1 mRNA, set 1 = 0.345.
Knock-down of UBFD1 came out at: BNIP3L mRNA, set 1 = 0.0827; NDRG1 mRNA, set 1 = 0.2.
Against NEFL the deposit lists BNIP3L mRNA, set 1 = 0.113; NDRG1 mRNA, set 1 = 0.684.
After knock-down of THPO the results were BNIP3L mRNA, set 1 = 0.0656; NDRG1 mRNA, set 1 = 0.6.
GRK5 gave BNIP3L mRNA, set 1 = 0.112; NDRG1 mRNA, set 1 = 0.0773.
GRK5 gave BNIP3L mRNA, set 1 = 0.144; NDRG1 mRNA, set 1 = 0.16.

Copied from the list:
Under “BNIP3L mRNA, set 1”, EIF3C reads 0.0559
Result for UBFD1 under “NDRG1 mRNA, set 1”: 0.2
